Like-named read-outs stand apart in the source and are kept apart here. Marks after values point to notes of the source that are not given here.
Tests used:
[1] = test system: B6D2F1 and CF-1 mouse oocytes
[2] = test system: B6D2F1 and CF-1 mouse oocytes; remark: listed apart in the source
[3] = test system: B6D2F1 and CF-1 mouse oocytes; remark: listed apart in the source
bovine oocytes = conditions: evaluated at 5 hpa
goat oocytes = conditions: 7% ethanol activation
[4] = B6D2F1, Deme 0 (demecolcine from 0 min p.a.), 45 min p.a.
[5] = B6D2F1, Deme 0 (demecolcine from 0 min p.a.), 75 min p.a.
[6] = B6D2F1, Deme 0 (demecolcine from 0 min p.a.), 105 min p.a.
[7] = B6D2F1, Deme 0 (demecolcine from 0 min p.a.), 135 min p.a.
[8] = B6D2F1, Deme 10 (demecolcine from 10 min p.a.), 45 min p.a.
[9] = B6D2F1, Deme 10 (demecolcine from 10 min p.a.), 75 min p.a.
[10] = B6D2F1, Deme 10 (demecolcine from 10 min p.a.), 105 min p.a.
[11] = B6D2F1, Deme 10 (demecolcine from 10 min p.a.), 135 min p.a.
[12] = B6D2F1, Deme 15 (demecolcine from 15 min p.a.), 45 min p.a.
[13] = B6D2F1, Deme 15 (demecolcine from 15 min p.a.), 75 min p.a.
[14] = B6D2F1, Deme 15 (demecolcine from 15 min p.a.), 105 min p.a.
[15] = B6D2F1, Deme 15 (demecolcine from 15 min p.a.), 135 min p.a.
[16] = CF-1, Deme 0 (demecolcine from 0 min p.a.), 45 min p.a.
[17] = CF-1, Deme 0 (demecolcine from 0 min p.a.), 75 min p.a.
[18] = CF-1, Deme 0 (demecolcine from 0 min p.a.), 105 min p.a.
[19] = CF-1, Deme 0 (demecolcine from 0 min p.a.), 135 min p.a.
[20] = CF-1, Deme 5 (demecolcine from 5 min p.a.), 45 min p.a.
[21] = CF-1, Deme 5 (demecolcine from 5 min p.a.), 75 min p.a.
[22] = CF-1, Deme 5 (demecolcine from 5 min p.a.), 105 min p.a.
[23] = CF-1, Deme 5 (demecolcine from 5 min p.a.), 135 min p.a.
[24] = CF-1, Deme 10 (demecolcine from 10 min p.a.), 45 min p.a.
[25] = CF-1, Deme 10 (demecolcine from 10 min p.a.), 75 min p.a.
[26] = CF-1, Deme 10 (demecolcine from 10 min p.a.), 105 min p.a.
[27] = CF-1, Deme 10 (demecolcine from 10 min p.a.), 135 min p.a.
[28] = CF-1, Deme 15 (demecolcine from 15 min p.a.), 45 min p.a.
[29] = CF-1, Deme 15 (demecolcine from 15 min p.a.), 75 min p.a.
[30] = CF-1, Deme 15 (demecolcine from 15 min p.a.), 105 min p.a.
[31] = CF-1, Deme 15 (demecolcine from 15 min p.a.), 135 min p.a.

Compound `CN[C@H]1CCc2cc(OC)c(OC)c(OC)c2-c2ccc(OC)c(=O)cc21` [demecolcine] has an activated oocytes [1, 4] of 96%, an activated oocytes [1, 5] of 98% and an activated oocytes [1, 6] of 96%. For the same compound, the activated oocytes [1, 7] was 96%, the activated oocytes ([1]; B6D2F1, Deme 5 (demecolcine from 5 min p.a.), 45 min p.a.) was 98% and the activated oocytes ([1]; B6D2F1, Deme 5 (demecolcine from 5 min p.a.), 75 min p.a.) was 94%. For the same compound, the activated oocytes ([1]; B6D2F1, Deme 5 (demecolcine from 5 min p.a.), 105 min p.a.) was 100%, the activated oocytes ([1]; B6D2F1, Deme 5 (demecolcine from 5 min p.a.), 135 min p.a.) was 94.5% and the activated oocytes [1, 8] was 94%. For the same compound, the activated oocytes [1, 9] was 98.1%, the activated oocytes [1, 10] was 100% and the activated oocytes [1, 11] was 100%. For the same compound, the activated oocytes [1, 12] was 97.9%, the activated oocytes [1, 13] was 96% and the activated oocytes [1, 14] was 94%. For the same compound, the activated oocytes [1, 15] was 98%, the activated oocytes [1, 16] was 92% and the activated oocytes [1, 17] was 98^a %. For the same compound, the activated oocytes [1, 18] was 100^a %, the activated oocytes [1, 19] was 95.9% and the activated oocytes [1, 20] was 82%. For the same compound, the activated oocytes [1, 21] was 76^b %, the activated oocytes [1, 22] was 84.3^b % and the activated oocytes [1, 23] was 98%. The activated oocytes [1, 24] was 80%, the activated oocytes [1, 25] was 84^b % and the activated oocytes [1, 26] was 96^a,b %. The activated oocytes [1, 27] was 94.7%, the activated oocytes [1, 28] was 94.2% and the activated oocytes [1, 29] was 100^a %. For the same compound, the activated oocytes [1, 30] was 96.1^a,b %, the activated oocytes [1, 31] was 95.9% and the rates of activation ([1]; all groups of demecolcine-treated oocytes, both strains, 45 min p.a.) was 80-98%. The activation rates ([1]; mouse oocytes, both strains (B6D2F1, CF 1), Example 4) was 89-10096, the “activated oocytes with a partially or completely rotated spindle” value [2, 4] was 37.5^b % and the “activated oocytes with a partially or completely rotated spindle” value [2, 5] was 30.6^b %. The “activated oocytes with a partially or completely rotated spindle” value [2, 6] was 0^b %, the “activated oocytes with a partially or completely rotated spindle” value [2, 7] was 8.3^b % and the “activated oocytes with a partially or completely rotated spindle” value [2, 8] was 29.8^b %. For the same compound, the “activated oocytes with a partially or completely rotated spindle” value [2, 9] was 47.2^b %, the “activated oocytes with a partially or completely rotated spindle” value [2, 10] was 7.7^b % and the “activated oocytes with a partially or completely rotated spindle” value [2, 11] was 9.6^b %. The “activated oocytes with a partially or completely rotated spindle” value [2, 12] was 30.4^b %, the “activated oocytes with a partially or completely rotated spindle” value [2, 13] was 41.7^b % and the “activated oocytes with a partially or completely rotated spindle” value [2, 14] was 34.0^c %. The “activated oocytes with a partially or completely rotated spindle” value [2, 15] was 4.O^b, the “activated oocytes with a partially or completely rotated spindle” value ([2]; B6D2F1, DemeS (demecolcine from 5 min p.a.), 45 min p.a.) was 26.5^b % and the “activated oocytes with a partially or completely rotated spindle” value ([2]; B6D2F1, DemeS (demecolcine from 5 min p.a.), 75 min p.a.) was 38.3^b %. The “activated oocytes with a partially or completely rotated spindle” value ([2]; B6D2F1, DemeS (demecolcine from 5 min p.a.), 105 min p.a.) was 3.6^b %, the “activated oocytes with a partially or completely rotated spindle” value ([2]; B6D2F1, DemeS (demecolcine from 5 min p.a.), 135 min p.a.) was 7.7^b % and the “activated oocytes with a partially or completely rotated spindle” value [2, 16] was 0^b %. For the same compound, the “activated oocytes with a partially or completely rotated spindle” value [2, 17] was 0^b %, the “activated oocytes with a partially or completely rotated spindle” value [2, 18] was 0^b % and the “activated oocytes with a partially or completely rotated spindle” value [2, 19] was 0^b %. For the same compound, the “activated oocytes with a partially or completely rotated spindle” value [2, 20] was 4.4^b %, the “activated oocytes with a partially or completely rotated spindle” value [2, 21] was 2.6^b.c % and the “activated oocytes with a partially or completely rotated spindle” value [2, 22] was 2.3^b %. For the same compound, the “activated oocytes with a partially or completely rotated spindle” value [2, 23] was 4^b %, the “activated oocytes with a partially or completely rotated spindle” value [2, 24] was 2.5^b % and the “activated oocytes with a partially or completely rotated spindle” value [2, 25] was 2.4^b,c %. The “activated oocytes with a partially or completely rotated spindle” value [2, 26] was 4.2^b %, the “activated oocytes with a partially or completely rotated spindle” value [2, 27] was 1.8^b % and the “activated oocytes with a partially or completely rotated spindle” value [2, 28] was 6.1^b %. The “activated oocytes with a partially or completely rotated spindle” value [2, 29] was 13.2^c %, the “activated oocytes with a partially or completely rotated spindle” value [2, 30] was 6.1^b % and the “activated oocytes with a partially or completely rotated spindle” value [2, 31] was 2.1^b %. The “maximum enucleation rate of total activated oocytes” value ([3]; B6D2F1) was 6.9%, the “maximum enucleation rate of total activated oocytes” value ([3]; CF-1) was 21% and the overall enucleation efficiency ([3]; CF-1, all activated oocytes) was ~20%. The activation rates (bovine oocytes; DM 0.4 μg/ml from 1, 1.5 or 2 hpa) was 79-100%, the activation rates (bovine oocytes; DM 0.4 μg/ml from 30 min pa) was 10-16% and the activation rates (goat oocytes) was 69-94%.
